These are yes or no findings as the source states them, for the method shown. Binding seen in cells or lysates may run through a third protein. A yes stands for co-enrichment or nearness to the bait. Other partners may have been found. Sequences can lack the tags named with a protein.
target: T1, GFP-AGO1 (ARGONAUTE1, Arabidopsis thaliana) (Arabidopsis thaliana) (UniProt O04379); assay: affinity purification with mass spectrometry; GFP-AGO1 immunoprecipitated with magnetic microbeads coupled to GFP antibodies (μMACS GFP Isolation Kit) from 7-day-old pAGO1:GFP-AGO1 ago1-27 seedlings after 1 h HS at 37°C; lysis buffer 50mM Tris-HCl pH7,5, 50mM NaCl, 0,25% IGEPAL CA-630, 2mM MgCl2, 5mM DTT; control IPs in Col-0 and the p35S:GFP-3Flag line; nanoLC-MS/MS
T1 sequence: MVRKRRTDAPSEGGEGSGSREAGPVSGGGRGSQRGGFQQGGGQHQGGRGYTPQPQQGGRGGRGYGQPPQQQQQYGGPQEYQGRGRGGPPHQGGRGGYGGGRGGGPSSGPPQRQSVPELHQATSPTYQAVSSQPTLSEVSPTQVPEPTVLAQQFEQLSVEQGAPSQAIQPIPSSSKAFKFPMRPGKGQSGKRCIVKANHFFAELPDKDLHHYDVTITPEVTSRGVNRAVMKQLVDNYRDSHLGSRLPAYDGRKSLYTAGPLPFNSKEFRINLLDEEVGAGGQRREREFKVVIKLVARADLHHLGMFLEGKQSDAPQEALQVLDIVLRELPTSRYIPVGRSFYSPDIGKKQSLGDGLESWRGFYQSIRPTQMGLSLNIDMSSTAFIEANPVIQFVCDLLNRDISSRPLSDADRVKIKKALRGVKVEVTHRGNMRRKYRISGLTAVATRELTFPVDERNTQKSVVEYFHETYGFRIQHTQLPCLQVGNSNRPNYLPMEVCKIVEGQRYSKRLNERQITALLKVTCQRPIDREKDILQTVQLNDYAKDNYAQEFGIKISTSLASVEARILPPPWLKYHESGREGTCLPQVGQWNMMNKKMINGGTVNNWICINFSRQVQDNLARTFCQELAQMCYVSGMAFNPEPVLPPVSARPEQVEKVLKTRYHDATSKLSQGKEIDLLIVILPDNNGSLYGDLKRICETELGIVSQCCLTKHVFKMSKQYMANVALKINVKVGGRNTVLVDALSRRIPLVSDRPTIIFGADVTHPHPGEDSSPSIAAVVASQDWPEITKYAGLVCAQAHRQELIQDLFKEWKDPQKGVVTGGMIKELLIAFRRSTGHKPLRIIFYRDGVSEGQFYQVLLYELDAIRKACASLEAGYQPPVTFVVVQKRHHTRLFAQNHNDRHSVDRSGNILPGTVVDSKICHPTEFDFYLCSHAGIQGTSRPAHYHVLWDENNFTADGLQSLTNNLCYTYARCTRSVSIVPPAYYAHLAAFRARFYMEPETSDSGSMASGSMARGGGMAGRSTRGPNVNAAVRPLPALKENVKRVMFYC

Row | Binder | binding
1 | LARP1a (protein, UniProt Q940X9 1-826) MMAETEGSVADDRELITREGGIGTKSPWKTTTSPVETIDAPVMGAHSWPALADAAQQPRPKNPPAPAPAPPSKNIPTSIPIPTPAVTGQAKSKGGGKANPGHKNPSGRHSKPGPRSNQNGPPPPPYLVHAVPYHPPPFPPMVPLPHAAGPDFPYAPYPPYPVPVPPVTESGNEKQVQASPLPPVLPAPQGDPGKPWPHQRGFDPRNMPQGAGPRNFGRPPFMGPAPGFLVGPGPGFPGPVYYLPGPPPGAIRGPYPPRFAPYPVNQGPPILSPEKLDLRDRVLKQVEYYFSDENLENDHYLISLMDEEGWVPTKIIAGFKRVKAMTMDVDFIVYALGFSNSVEVQGDQIRKRDKWSDWIPASKKSTSAETIGDGDKDSPKSITSGDNFGNPSKGSSKPTVSDFSSEGAQSSRTNNYKSGNLKSSADEKRNVEDLSNDFSNTFLLDEELDLEHRSPRKSGLSMSKSIEYEDDDMAVDDQDIQKLVIVTQNSGKSDGAGIGGTEAKNIPKELASTINDGLYYFEQELKKKRSGRRKNNSHLDTKDGKIKSGEGLNTKLGENSAANDGGEEHGIITSRRKQNKGTHKHHTAHARRFFSSNIRNNGNISESPPSSSIGFFFGSTPPDSHGPRLSKLSSSPQCTLSGSSPPVGSLPKSFPPFQHPSHQLLEENGFKQEKYLKYRKRCLNERKKLGSGCSEEMNHLYRFWSYFLRDTFVLSMYDDFQKFALEDAAGNYDYGLECLFRFYSYGLEKHFDEDLYKDFEKLSLDFYHKGNLYGLEKYWAFHHYRGKEEPITKHPELEKLLKEEFRSIDDFRAKETITNQKENKSH | binds
2 | PAB8 (protein, UniProt Q9FXA2 1-671) MAQIQHQGQNANGGVAVPGAAAAEAAAAAAGAAAAAAGAAQQGTTSLYVGDLDATVTDSQLFEAFTQAGQVVSVRVCRDMTTRRSLGYGYVNYATPQDASRALNELNFMALNGRAIRVMYSVRDPSLRKSGVGNIFIKNLDKSIDHKALHETFSAFGPILSCKVAVDPSGQSKGYGFVQYDTDEAAQGAIDKLNGMLLNDKQVYVGPFVHKLQRDPSGEKVKFTNVYVKNLSESLSDEELNKVFGEFGVTTSCVIMRDGEGKSKGFGFVNFENSDDAARAVDALNGKTFDDKEWFVGKAQKKSERETELKQKFEQSLKEAADKSQGSNLYVKNLDESVTDDKLREHFAPFGTITSCKVMRDPSGVSRGSGFVAFSTPEEATRAITEMNGKMIVTKPLYVALAQRKEDRKARLQAQFSQMRPVNMPPAVGPRMQMYPPGGPPMGQQLFYGQGPPAMIPQPGFGYQQQLVPGMRPGGSPMPNFFMPMMQQGQQQQQQQQQQQRPGGGRRGALPQPQQPSPMMQQQMHPRGRMYRYPQRDVNTMPGPTQNMLSVPYDVSSGGGVHHRDSPTSQPVPIVALATRLANAAPEQQRTMLGENLYPLVEQLEPESAAKVTGMLLEMDQTEVLHLLESPEALKAKVTEAMDVLRSVAQQQAGGAADQLASLSLGDNIVP | binds
3 | RH12 (protein, UniProt Q9M2E0 1-498) MNTNRGRYPPGVGTGRGAPPNPDYHQSYRQQQPPQDQQYVQRGYSQNPQQMQLQQQHQQQQQQQQWSRRPQLPGNASNANEVVQQTTQPEASSDANGQDWKATLRLPPPDTRYQTADVTATKGNEFEDYFLKRDLLKGIYEKGFEKPSPIQEESIPIALTGSDILARAKNGTGKTGAFCIPVLEKIDPNNNVIQAMILVPTRELALQTSQVCKELSKYLNIQVMVTTGGTSLRDDIMRLHQPVHLLVGTPGRILDLTKKGVCVLKDCAMLVMDEADKLLSAEFQPSLEELIQFLPQNRQFLMFSATFPVTVKAFKDRHLRKPYVINLMDQLTLMGVTQYYAFVEERQKVHCLNTLFSKLQINQSIIFCNSVNRVELLAKKITELGYSCFYIHAKMVQDHRNRVFHEFRNGACRNLVCTDLFTRGIDIQAVNVVINFDFPRTSESYLHRVGRSGRFGHLGLAVNLVTYEDRFKMYQTEQELGTEIKPIPSNIDQAIYCQ | binds
4 | RNA-binding protein 47A (RBP47A) (protein, UniProt F4I3B3 1-445) MQTPNNNGSTDSVLPPTSAGTTPPPPLQQSTPPPQQQQQQQWQQQQQWMAAMQQYPAAAMAMMQQQQMMMYPHPQYAPYNQAAYQQHPQFQYAAYQQQQQQHHQSQQQPRGGSGGDDVKTLWVGDLLHWMDETYLHTCFSHTNEVSSVKVIRNKQTCQSEGYGFVEFLSRSAAEEALQSFSGVTMPNAEQPFRLNWASFSTGEKRASENGPDLSIFVGDLAPDVSDAVLLETFAGRYPSVKGAKVVIDSNTGRSKGYGFVRFGDENERSRAMTEMNGAFCSSRQMRVGIATPKRAAAYGQQNGSQALTLAGGHGGNGSMSDGESNNSTIFVGGLDADVTEEDLMQPFSDFGEVVSVKIPVGKGCGFVQFANRQSAEEAIGNLNGTVIGKNTVRLSWGRSPNKQWRSDSGNQWNGGYSRGQGYNNGYANQDSNMYATAAAAVPGAS | binds
5 | AGO5 (protein, UniProt Q9SJK3 1-997) MSNRGGGGHGGASRGRGGGRRSDQRQDQSSGQVAWPGLQQSYGGRGGSVSAGRGRGNVGRGENTGDLTATQVPVASAVSGGRGRGNIGDPTFSVASSSKTVSVASSSKEESKNTEVSETMSNLQITSTETKPEMTSLPPASSKAVTFPVRPGRGTLGKKVMVRANHFLVQVADRDLYHYDVSINPEVISKTVNRNVMKLLVKNYKDSHLGGKSPAYDGRKSLYTAGPLPFDSKEFVVNLAEKRADGSSGKDRPFKVAVKNVTSTDLYQLQQFLDRKQREAPYDTIQVLDVVLRDKPSNDYVSVGRSFFHTSLGKDARDGRGELGDGIEYWRGYFQSLRLTQMGLSLNIDVSARSFYEPIVVTDFISKFLNIRDLNRPLRDSDRLKVKKVLRTLKVKLLHWNGTKSAKISGISSLPIRELRFTLEDKSEKTVVQYFAEKYNYRVKYQALPAIQTGSDTRPVYLPMELCQIDEGQRYTKRLNEKQVTALLKATCQRPPDRENSIKNLVVKNNYNDDLSKEFGMSVTTQLASIEARVLPPPMLKYHDSGKEKMVNPRLGQWNMIDKKMVNGAKVTSWTCVSFSTRIDRGLPQEFCKQLIGMCVSKGMEFKPQPAIPFISCPPEHIEEALLDIHKRAPGLQLLIVILPDVTGSYGKIKRICETELGIVSQCCQPRQVNKLNKQYMENVALKINVKTGGRNTVLNDAIRRNIPLITDRPTIIMGADVTHPQPGEDSSPSIAAVVASMDWPEINKYRGLVSAQAHREEIIQDLYKLVQDPQRGLVHSGLIREHFIAFRRATGQIPQRIIFYRDGVSEGQFSQVLLHEMTAIRKACNSLQENYVPRVTFVIVQKRHHTRLFPEQHGNRDMTDKSGNIQPGTVVDTKICHPNEFDFYLNSHAGIQGTSRPAHYHVLLDENGFTADQLQMLTNNLCYTYARCTKSVSIVPPAYYAHLAAFRARYYMESEMSDGGSSRSRSSTTGVGQVISQLPAIKDNVKEVMFYC | binds
6 | RNA-binding protein 47B (RBP47B) (protein, UniProt Q0WW84 1-435) MQTTNGSDSTLATSGATPPNQQTPPPPQQWQQQQQQQQQWMAAMQYPPAAAMMMMQQQQMLMYPHQYVPYNQGPYQQHHPQLHQYGSYQQHQHQQHKAIDRGSGDDVKTLWVGDLLHWMDETYLHSCFSHTGEVSSVKVIRNKLTSQSEGYGFVEFLSRAAAEEVLQNYSGSVMPNSDQPFRINWASFSTGEKRAVENGPDLSVFVGDLSPDVTDVLLHETFSDRYPSVKSAKVVIDSNTGRSKGYGFVRFGDENERSRALTEMNGAYCSNRQMRVGIATPKRAIANQQQHSSQAVILAGGHGSNGSMGYGSQSDGESTNATIFVGGIDPDVIDEDLRQPFSQFGEVVSVKIPVGKGCGFVQFADRKSAEDAIESLNGTVIGKNTVRLSWGRSPNKQWRGDSGQQWNGGYSRGHGYNNGGGYANHHDSNNYHGEN | binds
7 | RNA-binding protein 47C (RBP47C) (protein, UniProt Q9SX79 1-432) MADVKIQSESESSDSHPVVDNQPPPPPPPPQQPAKEEENQPKTSPTPPPHWMRYPPTVIIPHQMMYAPPPFPPYHQYPNHHHLHHQSRGNKHQNAFNGENKTIWVGDLHHWMDEAYLNSSFASGDEREIVSVKVIRNKNNGLSEGYGFVEFESHDVADKVLREFNGTTMPNTDQPFRLNWASFSTGEKRLENNGPDLSIFVGDLSPDVSDNLLHETFSEKYPSVKAAKVVLDANTGRSKGYGFVRFGDENERTKAMTEMNGVKCSSRAMRIGPATPRKTNGYQQQGGYMPNGTLTRPEGDIMNTTIFVGGLDSSVTDEDLKQPFNEFGEIVSVKIPVGKGCGFVQFVNRPNAEEALEKLNGTVIGKQTVRLSWGRNPANKQPRDKYGNQWVDPYYGGQFYNGYGYMVPQPDPRMYPAAPYYPMYGGHQQQVS | binds
8 | RNA helicase RH6 (protein, UniProt Q94BV4 1-528) MNNNNNNRGRFPPGIGAAGPGPDPNFQSRNPNPPQPQQYLQSRTPFPQQPQPQPPQYLQSQSDAQQYVQRGYPQQIQQQQQLQQQQQQQQQQQEQQWSRRAQLPGDPSYIDEVEKTVQSEAISDSNNEDWKATLKLPPRDNRYQTEDVTATKGNEFEDYFLKRDLLRGIYEKGFEKPSPIQEESIPIALTGSDILARAKNGTGKTGAFCIPTLEKIDPENNVIQAVILVPTRELALQTSQVCKELSKYLKIEVMVTTGGTSLRDDIMRLYQPVHLLVGTPGRILDLAKKGVCVLKDCAMLVMDEADKLLSVEFQPSIEELIQFLPESRQILMFSATFPVTVKSFKDRYLKKPYIINLMDQLTLMGVTQYYAFVEERQKVHCLNTLFSKLQINQSIIFCNSVNRVELLAKKITELGYSCFYIHAKMVQDHRNRVFHDFRNGACRNLVCTDLFTRGIDIQAVNVVINFDFPRTSESYLHRVGRSGRFGHLGLAVNLVTYEDRFKMYQTEQELGTEIKPIPSLIDKAIYCQ | binds
